Data from PubChem BioAssay AID493014 (National Center for Advancing Translational Sciences (NCATS), 2011).
The whole screen tested about 340,000 compounds, of which about 170 (0.05%) were called active. Inconclusive results, whose numbers are uncertain, are shown with a selection of clear calls. Calls follow the shape of the dose curve; as a rule, active = well fitted inhibition curve with a large enough effect in the signal ratio, with a control signal flat (not every such curve was filed as active); inconclusive = small, poorly fitted or top-dose-only effect, or effect the other way, or a change in a side signal; inactive = flat fitted curve, though single readings scatter; the % refers to the signal ratio. Potencies of inconclusive entries are doubtful fits and often do not repeat.

Assay: qHTS Assay to Find Inhibitors of Chronic Active B-Cell Receptor Signaling;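 as to activity change, negative = inhibition: plate controls were basal doxycycline-induced cells for no effect and cells given 10 µM MG132 for full effect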
Details: ABC-DLBCL IkBa-CBG/CBR reporter, luminescence ratio (green luciferase fused to IkBa over red control in TMD8 lymphoma cells), 4 h; activity change, negative = inhibition: at 46.1 µM (top of the series)
In short: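 Cell line TMD8 (human ABC DLBCL), stably expressing tet-inducible CBG68-IkBa fusion and CBR; IMDM/0.5% FBS; cpd up to 46 uM; dox induction, 4 h, 37C/5% CO2; dual luminescence; green/red ratio; MG132 control.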
Potency is read from the fitted curve at half-maximal effect.

SMILES	activity change, negative = inhibition	Potency
COc1ccc(-c2oc3ncnc(NCCN4CCOCC4)c3c2-c2ccc(OC)cc2)cc1	inactive: -17.8%	–
O=C(O)CC(Cc1ccccc1)c1ccc2c(c1)OCO2 (configuration not stated)	inconclusive: -1.07%	–
Cc1cccc(OCCOc2ccccc2C=C(C#N)C#N)c1	–	inconclusive: 29.1 µM [falling, single point]
CCCCC(=O)Nc1cccc(C(=O)Nc2ccccc2C(=O)O)c1	–	inconclusive: 28.2 µM [falling, single point]
O=C(Nc1ccc([N+](=O)[O-])cc1)Nc1ccc(N2CCOCC2)c2nonc12	inconclusive: 5.94%	–
CCCCCCn1c(CN2CCN(Cc3ccccc3)CC2)nc2c1c(=O)n(C)c(=O)n2C	inconclusive: -5.41%	–
CCOC(=O)c1ccc(N2C(=O)C3C(/C=C/c4ccccc4)OC4(C(=O)c5ccccc5C4=O)C3C2=O)cc1 (configuration not stated)	inconclusive: 5.64%	–
CSCCC(NS(=O)(=O)c1ccc2c(c1)OCCO2)C(=O)N(C)Cc1ccc(C)cc1 (configuration not stated)	inactive: 4.26%	–
O=C(CCCOc1ccccc1)Nc1ccc(Cl)c(S(=O)(=O)N2CCOCC2)c1	–	inconclusive: 32.6 µM [falling, partial curve, poor fit]
CCOc1ccc(C(=O)N2CCC(c3ccncc3)CC2)cc1	inactive: 0.155%	–
COc1ccc(/C=C2/C(=O)OCc3cc(OC)c(OC)cc32)cc1	–	inconclusive: 8.2 µM [falling, partial curve]
CCOC(=O)c1cc(OC(=O)c2cccc(Cl)c2)n(-c2ccccc2)n1	inactive: 14.2%	–
CCOc1cc(-c2c(C)c(C)nc(N)c2C#N)ccc1O	inconclusive: 3.59%	–
Cc1ccc(OCC(O)CNC2CCCC2)c(C)c1 (configuration not stated)	inactive: 3.89%	–
COc1cc(C(=O)NCC(=O)N2CCN(S(=O)(=O)c3cc(C)ccc3C)CC2)cc(OC)c1OC	–	inconclusive: 20 µM [falling, single point]
Cn1cccc1-c1cc(C(=O)N/N=C/c2cc(Br)ccc2O)[nH]n1	inactive: -13%	–
CCOc1ccc2oc(-c3ccccc3)c(C(N)=O)c2c1	inconclusive: 6.76%	–
COc1ccc2cc(/C=N/NC(=O)CN(c3ccccc3C)S(=O)(=O)c3ccccc3)c(Cl)nc2c1	inactive: -3.18%	–
O=C(CN(CC1CCCO1)C(=O)CCC(=O)Nc1ccccn1)NCC1CCCO1 (configuration not stated)	inconclusive: 2.57%	–
Cc1nc2cc(-c3cccc(F)c3)nn2c(C)c1CCC(=O)NC(C)c1ccc2c(c1)OCCO2 (configuration not stated)	–	inconclusive: 20.6 µM [falling, partial curve, poor fit]
CCC(C)C(=O)Nc1nnc(SCC(=O)NC(C)(C)C)s1 (configuration not stated)	inactive: 12.7%	–

SMILES	activity change, negative = inhibition	Potency
COc1cccc(NC(=O)COC(=O)CC(NC(N)=O)c2ccc(Cl)cc2)c1 (configuration not stated)	inconclusive: -7.95%	–
CNC(=O)NC(=O)CSc1ncc(C(F)(F)F)cc1Cl	inactive: 0.12%	–
CCC(CO)n1c(=S)[nH]c2cc(OC)c(OC)cc2c1=O (configuration not stated)	inactive: -4.96%	–
CCC/C=C(\CCC)C(NC(=O)Cc1ccccc1)c1ccc(C(=O)OC)cc1 (configuration not stated)	inconclusive: 0.738%	–
Cc1c(Cl)cccc1-n1c(SCC(=O)NCc2cccs2)nnc1-c1ccncc1	inconclusive: 7.51%	–
O=C(NCc1ccco1)c1c2c(nc3ccccc13)CCC2	inconclusive: 1.91%	–
Cc1ccc(Cl)cc1N1CCN(C(=O)CCCn2c(=O)c3cccn3c3cccnc32)CC1	inconclusive: 0.854%	–
COc1ccc(C2Cc3ccccc3C(=O)O2)cc1 (configuration not stated)	inconclusive: 1.03%	–
O=C(CCN1C(=O)/C(=C\C=C\c2ccccc2)SC1=S)Nc1ccc(C(=O)O)cc1	–	inconclusive: 7.08 µM [rising, full curve, poor fit]
CCc1nnc(NS(=O)(=O)c2ccc(NC(=S)NC(=O)c3ccc(F)cc3)cc2)s1	–	inconclusive: 18.4 µM [rising, partial curve, poor fit]
COc1ccc([N+](=O)[O-])cc1NC(=O)CCC(=O)c1cccs1	inconclusive: 7.17%	–
Cn1ncc([N+](=O)[O-])c1C(=O)Nc1nc2ccccc2n1CCN1CCCCC1	inactive: 3.18%	–
CCOc1cc(NC(=S)Nc2ccc(Cl)cc2)c(OCC)cc1NC(C)=O	inconclusive: 10.5%	–
Cc1ccc(N2Cc3ccccc3C2=O)cc1	inactive: -1.08%	–
COc1ccc(NC(=O)c2cc(S(=O)(=O)N3CCCCC3)c[nH]2)cc1	inconclusive: 15.5%	–
O=C(N/N=C/c1cccc(F)c1)c1c(O)c2ccccc2[nH]c1=O	–	inconclusive: 2.91 µM [falling, partial curve]
Cc1ccc(-c2ccnc3c(Cl)c(C)nn23)cc1	inconclusive: 3.1%	–
CCCCCCSc1nsc(NC(=O)CCC)n1	inconclusive: 1.88%	–
COc1cccc(C2CC(=O)Nc3cc(OC)c(OC)c(OC)c32)c1OC (configuration not stated)	inconclusive: -9.32%	–
CC1CCCC(NC(=O)C2CCN(S(=O)(=O)N3CCCCC3)CC2)C1C (configuration not stated)	inconclusive: 5.64%	–
O=C(C1COc2ccccc2O1)N1CCN(Cc2ccc3c(c2)OCO3)CC1 (configuration not stated)	–	inconclusive: 35.5 µM [falling, partial curve, poor fit]

SMILES	activity change, negative = inhibition	Potency
Cc1cccc(Nc2nnc(SCC(=O)NCc3cccs3)s2)c1	inconclusive: -11.6%	–
Cc1cc(C)cc(NC(=O)N2CCC(NC(=O)c3ccccc3C)CC2)c1	inconclusive: 0.438%	–
O=C(Nc1ccn(Cc2ccccc2)n1)c1cccc(F)c1	inconclusive: -18.9%	–
COC(=O)c1ccccc1NC(=O)CSc1nnnn1C1CCCCC1	inconclusive: -13.7%	–
COc1ccc(-c2nn(-c3ccccc3)cc2/C=C(/C#N)C(N)=O)cc1[N+](=O)[O-]	inconclusive: -17.8%	–
COc1ccc(N(CC(=O)Nc2ccc3c(c2)OCO3)S(=O)(=O)c2ccc(C)cc2)cc1OC	–	inconclusive: 11.2 µM [falling, partial curve, poor fit]
COc1ccc2c(C)cc(SCC#N)nc2c1	inconclusive: -13.1%	–
CNC(=O)Nc1ccc2nc(C)sc2c1	inactive: 20.8%	–
FCCCOc1ccc(/C=N/OCc2ccc(Cl)cc2Cl)cc1	inconclusive: 4.12%	–
CN(C)S(=O)(=O)c1cccc(NC(=S)N/N=C/c2cc(Br)ccc2O)c1	inconclusive: -3.81%	–
COc1ccccc1N1CCN(C(=O)c2cc(-c3ccc(F)cc3)[nH]c2C)CC1	–	inconclusive: 11.2 µM [falling, partial curve]
CC(=O)Nc1ccc(S(=O)(=O)NCc2ccc(C(=O)NCc3ccc4c(c3)OCO4)cc2)cc1	–	inconclusive: 35.5 µM [falling, single point]
CC(C)c1ccc(CN2CC(C(=O)O)CC2=O)cc1 (configuration not stated)	inconclusive: -16.3%	–
COc1ccccc1-c1cc(C(=O)NCCN2CCOCC2)no1	–	inconclusive: 17.8 µM [falling, single point]
CCn1c(SCC(=O)N2CCN(c3ccccc3)CC2)nc2c([nH]c3ccccc32)c1=O	inconclusive: -4.45%	–
CCC1CCCCN1c1cc(C)nc2cc(-c3cccc(C)c3)nn12 (configuration not stated)	inconclusive: 5.82%	–
O=C(CCC1CCCC1)N1CCN(C(=O)c2cccnc2)CC1	inactive: 8.14%	–
CCN(c1ccccc1)c1nc2ccsc2c(=O)s1	inconclusive: 1.62%	–
CC1(C)CC(N2CCN(C(c3ccccc3)c3ccccc3)CC2)=CC(=[N+]2CCCCC2)C1	inconclusive: 0.368%	–
CCN1/C(=C/c2ccc3cc(C)cc(C)c3[n+]2CC)Sc2cc(C)ccc21	inconclusive: 14.2%	–
Cc1cccc(N2CC(C(=O)NCCC3=CCCCC3)CC2=O)c1C (configuration not stated)	inconclusive: 4.55%	–

Nothing new here: entries from further up.
SMILES	activity change, negative = inhibition	Potency
CC1CCCC(NC(=O)C2CCN(S(=O)(=O)N3CCCCC3)CC2)C1C (configuration not stated)	inconclusive: 5.64%	–
O=C(C1COc2ccccc2O1)N1CCN(Cc2ccc3c(c2)OCO3)CC1 (configuration not stated)	–	inconclusive: 35.5 µM [falling, partial curve, poor fit]

Additional structures follow:

SMILES	activity change, negative = inhibition	Potency
CCC/C(=N\NC(=O)c1ccccc1C)c1ccccc1	–	inconclusive: 23.1 µM [falling, partial curve]
CC(=O)Nc1cccc(NC(=O)CCNC(=O)c2ccccc2)c1	inactive: -6.69%	–
CCOC(=O)C1=C(C)Nc2ccccc2N=C1NC(=O)C(c1ccccc1)c1ccccc1	inconclusive: -0.395%	–
C(=N\n1cnnc1)/c1ccccc1OCCOc1ccccc1	inconclusive: -0.114%	–
Cc1ccc2c(COC(=O)c3n[nH]c4ccccc34)cc(=O)oc2c1	inconclusive: -14%	–
CCC(CC)C(=O)N1CCc2cc(OC)c(OC)cc2C1COc1ccc(C(=O)OC)cc1 (configuration not stated)	inactive: -0.108%	–
COc1ccc(C)cc1NC(=O)CSc1nc(=O)[nH]c2c1CCCC2	inconclusive: -0.586%	–
Cc1cccc(NC(=O)CSc2nc3ccccc3nc2N2CCCC2)c1	inconclusive: 22.9%	–
CCO/C=N/Nc1nc(C(F)(F)F)nc2c1cnn2Cc1ccccc1	–	inconclusive: 11.2 µM [rising, partial curve, poor fit]
Cc1ccsc1/C=N/n1c(-c2ccccc2)n[nH]c1=S	–	inconclusive: 1.64 µM [falling, partial curve, poor fit]
COc1ccc2nc(N3CCCC3)c(C#N)cc2c1	inconclusive: -0.343%	–
COc1ccc(/C=N/NC(=O)c2[nH]c3ccc(Br)cc3c2-c2ccccc2)cc1	–	inconclusive: 0.731 µM [falling, partial curve, poor fit]
O=C(CSC1=N/C(=C/c2ccc(Cl)c(Cl)c2)C(=O)N1c1ccccc1F)NC1CC1	inconclusive: 2.03%	–
CN(C)c1ccc(/C=C/C(=O)c2cc(Cl)ccc2O)cc1	inconclusive: 22.4%	–
CCCn1nc(Oc2nc(N(C)C)nc(N(C)C)n2)ccc1=O	inconclusive: -21.4%	–
Cc1cc[n+]2n1CC(O)C2 (configuration not stated)	inactive: -9.06%	–
Cc1cccnc1NC(=O)CSc1nnc(COc2ccc(C(C)C)cc2)n1C	inconclusive: 3.51%	–
COc1cc(C(=O)NCC2CCCO2)ccc1OCc1ccccc1 (configuration not stated)	inactive: 4.12%	–
Cc1cnn(CCC(=O)NNC(=S)NCC(C)C)c1	–	active: 18.4 µM
